The numbers were not newly measured in patent publication US6620853B1, “Methods and compositions for prevention and treatment of restenosis with non-steroidal anti-inflammatory drugs” (Mount Sinai School of Medicine, priority 1998, dated 2003), which cites them from elsewhere.

For the data set, the system named is HT-29 human colon adenocarcinoma cells. The settings on record: cited from earlier work.

With `COc1ccc2cc([C@H](C)C(=O)O)ccc2c1` [naproxen], the “morphology of HT-29 cells” value is recorded as “altered morphology” and the “proliferation of HT-29 cells” value is listed as “reduced proliferation”.
